Test results as given in the supplement of paper PMC6411743.
± gives the standard deviation of the averaged measurements. This is a selection; strong and weak results do not stand in their true shares. Most entries show no effect beyond the scatter of the controls.

Chains of the proteins cited; added tags and fusions are not shown. Lines headed by an entry give the natural chain unless they say otherwise; changes in a name come on top.
UniProt Q96T21: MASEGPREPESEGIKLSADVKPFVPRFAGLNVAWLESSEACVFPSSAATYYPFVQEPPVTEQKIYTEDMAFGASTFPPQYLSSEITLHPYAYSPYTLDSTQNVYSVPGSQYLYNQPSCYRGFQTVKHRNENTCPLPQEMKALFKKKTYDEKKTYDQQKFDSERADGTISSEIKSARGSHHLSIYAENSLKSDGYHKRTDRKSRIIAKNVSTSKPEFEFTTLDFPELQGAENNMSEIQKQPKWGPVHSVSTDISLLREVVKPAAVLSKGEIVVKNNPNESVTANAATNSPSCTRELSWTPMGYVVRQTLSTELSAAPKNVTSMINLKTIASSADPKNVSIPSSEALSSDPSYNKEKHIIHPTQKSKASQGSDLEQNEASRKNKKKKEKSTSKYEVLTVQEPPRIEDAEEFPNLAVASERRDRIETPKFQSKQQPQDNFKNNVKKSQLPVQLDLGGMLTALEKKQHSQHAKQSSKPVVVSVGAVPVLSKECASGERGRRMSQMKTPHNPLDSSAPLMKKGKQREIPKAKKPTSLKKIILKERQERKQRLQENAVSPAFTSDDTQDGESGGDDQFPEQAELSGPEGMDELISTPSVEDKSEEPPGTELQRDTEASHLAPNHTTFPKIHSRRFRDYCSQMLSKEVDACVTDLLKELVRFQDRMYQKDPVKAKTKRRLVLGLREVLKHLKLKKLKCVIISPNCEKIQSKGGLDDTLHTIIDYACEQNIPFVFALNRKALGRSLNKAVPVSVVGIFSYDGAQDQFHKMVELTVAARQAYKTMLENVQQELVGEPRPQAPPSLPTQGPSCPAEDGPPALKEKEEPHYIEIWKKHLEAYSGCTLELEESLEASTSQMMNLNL
UniProt Q99615: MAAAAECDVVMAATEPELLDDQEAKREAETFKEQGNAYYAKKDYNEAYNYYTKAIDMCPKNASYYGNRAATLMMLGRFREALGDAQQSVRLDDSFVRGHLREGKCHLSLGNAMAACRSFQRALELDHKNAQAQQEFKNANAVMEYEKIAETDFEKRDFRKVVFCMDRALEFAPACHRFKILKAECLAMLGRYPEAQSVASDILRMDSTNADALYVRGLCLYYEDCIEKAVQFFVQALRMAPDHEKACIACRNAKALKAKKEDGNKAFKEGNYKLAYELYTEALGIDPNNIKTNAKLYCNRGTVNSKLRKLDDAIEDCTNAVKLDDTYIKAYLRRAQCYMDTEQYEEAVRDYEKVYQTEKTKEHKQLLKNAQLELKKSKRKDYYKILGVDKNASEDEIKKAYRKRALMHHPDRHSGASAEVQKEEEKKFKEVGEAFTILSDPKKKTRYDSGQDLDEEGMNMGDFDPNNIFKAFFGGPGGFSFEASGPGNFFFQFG
UniProt Q9BVI4: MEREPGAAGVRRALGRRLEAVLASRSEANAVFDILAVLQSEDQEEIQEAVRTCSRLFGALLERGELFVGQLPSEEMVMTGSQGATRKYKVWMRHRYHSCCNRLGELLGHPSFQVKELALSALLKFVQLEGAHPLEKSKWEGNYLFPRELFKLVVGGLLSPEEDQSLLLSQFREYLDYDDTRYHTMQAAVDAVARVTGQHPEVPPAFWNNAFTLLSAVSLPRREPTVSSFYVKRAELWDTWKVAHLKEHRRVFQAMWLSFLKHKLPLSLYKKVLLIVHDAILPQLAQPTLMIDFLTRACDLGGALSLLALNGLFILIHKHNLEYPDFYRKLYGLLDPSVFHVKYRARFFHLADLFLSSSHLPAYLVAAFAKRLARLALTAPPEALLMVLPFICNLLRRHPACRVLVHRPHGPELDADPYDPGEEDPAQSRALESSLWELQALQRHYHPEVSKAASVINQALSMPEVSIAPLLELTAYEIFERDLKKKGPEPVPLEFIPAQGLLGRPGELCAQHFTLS
UniProt Q9BPX7: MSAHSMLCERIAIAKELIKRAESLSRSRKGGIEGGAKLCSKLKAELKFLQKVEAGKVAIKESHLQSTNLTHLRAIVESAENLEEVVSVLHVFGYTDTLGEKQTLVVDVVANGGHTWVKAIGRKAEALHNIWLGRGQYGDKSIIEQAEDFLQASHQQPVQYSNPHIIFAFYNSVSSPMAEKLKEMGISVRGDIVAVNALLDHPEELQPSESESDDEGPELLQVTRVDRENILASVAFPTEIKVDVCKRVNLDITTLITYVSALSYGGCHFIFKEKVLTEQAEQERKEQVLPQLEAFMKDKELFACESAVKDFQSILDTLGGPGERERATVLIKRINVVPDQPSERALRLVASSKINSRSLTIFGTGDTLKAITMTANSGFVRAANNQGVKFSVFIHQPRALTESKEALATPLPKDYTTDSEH
UniProt Q99523, whole entry: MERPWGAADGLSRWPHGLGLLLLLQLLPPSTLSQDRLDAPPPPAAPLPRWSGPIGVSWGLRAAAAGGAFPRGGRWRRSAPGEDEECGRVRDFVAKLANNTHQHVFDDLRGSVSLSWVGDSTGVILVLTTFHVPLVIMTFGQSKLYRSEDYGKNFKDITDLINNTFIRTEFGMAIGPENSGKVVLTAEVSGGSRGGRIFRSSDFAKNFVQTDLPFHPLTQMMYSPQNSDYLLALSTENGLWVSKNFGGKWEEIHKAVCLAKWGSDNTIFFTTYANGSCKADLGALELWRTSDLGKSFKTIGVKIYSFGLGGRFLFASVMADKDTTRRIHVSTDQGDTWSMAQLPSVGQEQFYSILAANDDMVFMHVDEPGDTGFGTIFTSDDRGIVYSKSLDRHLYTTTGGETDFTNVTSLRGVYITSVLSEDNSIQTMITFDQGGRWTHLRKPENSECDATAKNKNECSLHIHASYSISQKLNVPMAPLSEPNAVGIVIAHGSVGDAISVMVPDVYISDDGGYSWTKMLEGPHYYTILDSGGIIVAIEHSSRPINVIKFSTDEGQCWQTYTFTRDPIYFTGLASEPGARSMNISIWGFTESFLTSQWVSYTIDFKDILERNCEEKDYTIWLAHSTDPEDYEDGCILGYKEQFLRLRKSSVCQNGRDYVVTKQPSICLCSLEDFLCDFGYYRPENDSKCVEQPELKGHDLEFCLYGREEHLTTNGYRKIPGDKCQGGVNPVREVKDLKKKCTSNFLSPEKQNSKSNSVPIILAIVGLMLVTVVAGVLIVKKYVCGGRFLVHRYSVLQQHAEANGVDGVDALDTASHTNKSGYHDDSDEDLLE
UniProt Q9BV86: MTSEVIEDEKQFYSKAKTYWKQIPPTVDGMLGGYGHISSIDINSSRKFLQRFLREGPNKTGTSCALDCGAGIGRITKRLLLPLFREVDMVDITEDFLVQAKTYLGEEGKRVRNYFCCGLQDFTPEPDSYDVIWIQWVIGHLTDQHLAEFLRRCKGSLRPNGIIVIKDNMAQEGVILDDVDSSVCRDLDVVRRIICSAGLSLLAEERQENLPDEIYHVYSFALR
UniProt Q9BYV8: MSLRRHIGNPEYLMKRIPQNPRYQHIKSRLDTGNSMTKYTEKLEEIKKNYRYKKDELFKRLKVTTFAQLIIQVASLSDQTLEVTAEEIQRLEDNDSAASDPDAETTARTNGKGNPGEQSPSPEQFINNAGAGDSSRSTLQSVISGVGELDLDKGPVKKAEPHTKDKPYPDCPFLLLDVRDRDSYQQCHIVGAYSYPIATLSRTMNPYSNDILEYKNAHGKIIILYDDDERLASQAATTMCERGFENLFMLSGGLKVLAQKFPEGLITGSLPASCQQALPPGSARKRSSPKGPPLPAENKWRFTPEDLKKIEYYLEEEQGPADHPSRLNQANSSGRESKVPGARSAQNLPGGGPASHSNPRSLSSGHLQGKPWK
UniProt Q96RQ3: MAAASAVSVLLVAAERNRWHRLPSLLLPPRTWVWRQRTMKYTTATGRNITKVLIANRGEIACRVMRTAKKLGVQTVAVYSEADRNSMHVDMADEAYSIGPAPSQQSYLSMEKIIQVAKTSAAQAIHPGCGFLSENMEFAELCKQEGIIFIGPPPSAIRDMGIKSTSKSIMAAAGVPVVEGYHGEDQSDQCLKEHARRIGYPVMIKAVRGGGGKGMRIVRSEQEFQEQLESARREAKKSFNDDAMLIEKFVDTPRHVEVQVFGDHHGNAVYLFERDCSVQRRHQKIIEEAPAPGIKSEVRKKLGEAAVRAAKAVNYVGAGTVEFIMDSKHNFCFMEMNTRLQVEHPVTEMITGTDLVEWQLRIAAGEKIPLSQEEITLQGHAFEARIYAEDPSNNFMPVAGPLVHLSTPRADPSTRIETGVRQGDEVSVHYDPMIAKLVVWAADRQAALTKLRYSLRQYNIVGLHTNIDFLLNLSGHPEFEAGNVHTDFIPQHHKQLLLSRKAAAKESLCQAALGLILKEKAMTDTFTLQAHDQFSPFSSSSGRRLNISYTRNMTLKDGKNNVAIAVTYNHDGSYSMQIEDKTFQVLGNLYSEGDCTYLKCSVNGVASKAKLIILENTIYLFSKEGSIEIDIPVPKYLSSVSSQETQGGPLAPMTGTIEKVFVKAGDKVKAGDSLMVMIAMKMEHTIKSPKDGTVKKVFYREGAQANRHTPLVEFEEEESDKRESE
UniProt Q9BQS8: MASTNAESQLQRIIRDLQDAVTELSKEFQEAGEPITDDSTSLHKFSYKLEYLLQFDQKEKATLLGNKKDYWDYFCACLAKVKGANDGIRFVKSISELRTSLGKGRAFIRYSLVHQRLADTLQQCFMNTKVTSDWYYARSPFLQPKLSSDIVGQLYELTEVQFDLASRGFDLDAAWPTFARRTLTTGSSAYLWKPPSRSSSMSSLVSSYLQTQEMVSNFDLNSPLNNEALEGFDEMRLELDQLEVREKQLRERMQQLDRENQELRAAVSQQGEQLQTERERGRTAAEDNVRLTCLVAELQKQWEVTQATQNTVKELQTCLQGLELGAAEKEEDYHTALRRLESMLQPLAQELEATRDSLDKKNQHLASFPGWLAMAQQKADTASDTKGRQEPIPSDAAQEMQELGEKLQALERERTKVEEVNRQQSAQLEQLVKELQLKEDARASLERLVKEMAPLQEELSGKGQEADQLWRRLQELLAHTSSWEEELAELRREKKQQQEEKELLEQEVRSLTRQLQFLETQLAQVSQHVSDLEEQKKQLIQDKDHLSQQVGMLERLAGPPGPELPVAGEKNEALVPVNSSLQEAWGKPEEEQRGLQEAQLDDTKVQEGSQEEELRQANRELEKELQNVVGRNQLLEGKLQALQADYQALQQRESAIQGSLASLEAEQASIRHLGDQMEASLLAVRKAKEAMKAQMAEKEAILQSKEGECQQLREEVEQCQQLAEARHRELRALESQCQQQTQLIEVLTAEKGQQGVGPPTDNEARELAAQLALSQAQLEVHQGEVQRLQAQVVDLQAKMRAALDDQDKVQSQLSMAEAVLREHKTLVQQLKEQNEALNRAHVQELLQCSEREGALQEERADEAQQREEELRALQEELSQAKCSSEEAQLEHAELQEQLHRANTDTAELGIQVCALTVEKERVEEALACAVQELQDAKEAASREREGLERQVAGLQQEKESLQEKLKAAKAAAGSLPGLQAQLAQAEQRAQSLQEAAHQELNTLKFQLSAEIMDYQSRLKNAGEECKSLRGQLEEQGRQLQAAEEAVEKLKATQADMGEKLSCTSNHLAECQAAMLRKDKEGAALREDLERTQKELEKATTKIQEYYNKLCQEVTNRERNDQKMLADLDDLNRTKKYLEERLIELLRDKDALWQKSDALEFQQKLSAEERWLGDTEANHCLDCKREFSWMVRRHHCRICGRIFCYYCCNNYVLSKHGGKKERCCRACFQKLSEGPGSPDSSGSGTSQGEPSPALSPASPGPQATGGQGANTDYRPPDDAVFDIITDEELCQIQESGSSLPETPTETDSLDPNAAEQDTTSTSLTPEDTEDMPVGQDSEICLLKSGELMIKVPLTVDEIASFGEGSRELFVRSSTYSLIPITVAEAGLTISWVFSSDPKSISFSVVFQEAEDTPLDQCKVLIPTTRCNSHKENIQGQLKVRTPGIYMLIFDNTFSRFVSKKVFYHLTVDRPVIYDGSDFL
UniProt Q9BSD7: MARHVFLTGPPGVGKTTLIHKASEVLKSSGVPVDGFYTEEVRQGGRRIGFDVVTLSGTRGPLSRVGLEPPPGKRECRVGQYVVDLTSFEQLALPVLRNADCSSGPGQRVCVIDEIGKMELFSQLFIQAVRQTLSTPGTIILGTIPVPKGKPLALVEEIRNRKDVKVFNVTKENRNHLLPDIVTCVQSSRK
UniProt Q9BPX5, whole entry: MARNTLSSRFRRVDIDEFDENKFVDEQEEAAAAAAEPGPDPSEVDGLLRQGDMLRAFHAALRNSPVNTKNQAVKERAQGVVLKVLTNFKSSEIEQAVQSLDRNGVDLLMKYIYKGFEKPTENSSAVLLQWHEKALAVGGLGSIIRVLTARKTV
UniProt Q9BVC4, whole entry: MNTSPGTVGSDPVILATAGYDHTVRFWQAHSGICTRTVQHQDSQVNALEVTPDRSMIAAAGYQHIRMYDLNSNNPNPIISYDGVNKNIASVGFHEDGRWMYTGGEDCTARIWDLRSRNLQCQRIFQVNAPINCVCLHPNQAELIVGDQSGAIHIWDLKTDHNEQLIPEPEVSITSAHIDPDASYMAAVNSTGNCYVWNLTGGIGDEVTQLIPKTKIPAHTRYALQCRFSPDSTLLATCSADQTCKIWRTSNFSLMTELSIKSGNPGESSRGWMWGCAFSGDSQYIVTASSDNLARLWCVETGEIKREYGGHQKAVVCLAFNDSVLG

Compound: Nc1ncnc2c1ncn2[C@@H]1O[C@H](COP(=O)(O)OP(=O)(O)NP(=O)(O)O)[C@@H](O)[C@H]1O [adenylyl imidodiphosphate]
Test: NP40-soluble protein abundance relative to vehicle (solubility fold change) (ratio); higher = more soluble protein in presence of AMP-PNP
Method in brief: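 Eight concentrations, 0.1 to 10 mM, were tested on Jurkat crude lysate for 10 min at room temperature and then 3 min at 37 °C, in three independent experiments. The lysate was solubilised with 0.8% NP40 and benzonase, ultracentrifuged, and the supernatant TMT-labelled for LC-MS/MS. Each value is the fold change against the detergent-processed vehicle in its own replicate, from vsn-normalised intensities.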

Target	NP40-soluble protein abundance (concentration: 0.1mM)	NP40-soluble protein abundance (concentration: 0.5mM)
UniProt Q9BUH6	1.01 ± 0.011	1.04 ± 0.019
UniProt Q9BZE1 and related entries	1.03 ± 0.043	1.03 ± 0.069
UniProt Q9BWS9 and related entries	0.985 ± 0.067	0.96 ± 0.094
UniProt Q96T21 and related entries	0.994 ± 0.04	0.98 ± 0.026
UniProt Q96SN8 and related entries	1.03 ± 0.032	1.02 ± 0.043
DNAJC7 (UniProt Q99615)	0.988 ± 0.018	1.03 ± 0.031
C16orf70 (UniProt Q9BSU1)	0.998 ± 0.022	1.01 ± 0.05
NOC4L (UniProt Q9BVI4)	1.02 ± 0.013	1.013 ± 0.01
UniProt Q9BY77 and related entries	0.981 ± 0.03	0.99 ± 0.068
DCUN1D5 (UniProt Q9BTE7)	0.992 ± 0.012	0.978 ± 0.041
UniProt Q99081 and related entries	0.992 ± 0.045	1.01 ± 0.011
UniProt Q9BPX7 and related entries	0.9945 ± 0.0032	1.04 ± 0.043
UniProt Q9BTA9 and related entries	1.047 ± 0.01	1.03 ± 0.044
CENPO (UniProt Q9BU64)	1.01 ± 0.011	1.013 ± 0.0081
SGPP1 (UniProt Q9BX95)	0.982 ± 0.073	0.999 ± 0.076
PDCD2L (UniProt Q9BRP1)	0.986 ± 0.033	1.01 ± 0.032
TXNDC17 (UniProt Q9BRA2)	0.992 ± 0.052	0.982 ± 0.021
UniProt Q96RR4 and related entries	0.988 ± 0.019	0.989 ± 0.028
MRI1 (UniProt Q9BV20)	0.992 ± 0.021	0.975 ± 0.011
NCAPG (UniProt Q9BPX3)	0.981 ± 0.018	0.974 ± 0.04

Looked up one by one from the entries so far, two records:
Target	NP40-soluble protein abundance (concentration: 0.1mM)	NP40-soluble protein abundance (concentration: 0.5mM)
UniProt Q96SN8 and related entries	1.03 ± 0.032	1.02 ± 0.043
NOC4L (UniProt Q9BVI4)	1.02 ± 0.013	1.013 ± 0.01

Further results:

Target	NP40-soluble protein abundance (concentration: 0.1mM)	NP40-soluble protein abundance (concentration: 0.5mM)
TMEM43 (UniProt Q9BTV4)	0.971 ± 0.032	0.934 ± 0.14
SORT1 (UniProt Q99523)	0.98 ± 0.04	0.996 ± 0.052
TARS2 (UniProt Q9BW92)	1.02 ± 0.018	0.965 ± 0.064
NABP2 (UniProt Q9BQ15)	1 ± 0.095	0.98 ± 0.047
GPATCH1 (UniProt Q9BRR8)	1.02 ± 0.058	1.04 ± 0.031
HDHD3 (UniProt Q9BSH5)	1.049 ± 0.005	1.01 ± 0.016
UniProt Q9BV81	0.99 ± 0.036	0.965 ± 0.019
UniProt Q9BY44 and related entries	0.988 ± 0.024	1.02 ± 0.024
DNAJC2 (UniProt Q99543)	1.01 ± 0.031	0.97 ± 0.041
ADO (UniProt Q96SZ5)	0.978 ± 0.038	1.06 ± 0.059
DOHH (UniProt Q9BU89)	0.988 ± 0.019	1.01 ± 0.074
SMC6 (UniProt Q96SB8)	0.997 ± 0.026	1.06 ± 0.075
STRBP (UniProt Q96SI9)	1.01 ± 0.033	1.02 ± 0.047
UniProt Q9BV86	1.04 ± 0.062	0.984 ± 0.064
UniProt Q9BYV8	0.947 ± 0.024	0.9776 ± 0.0072
RPAP1 (UniProt Q9BWH6)	1.03 ± 0.044	1.03 ± 0.032
UniProt Q9BSC4 and related entries	0.954 ± 0.022	0.961 ± 0.016
YTHDF1 (UniProt Q9BYJ9)	1 ± 0.022	1.03 ± 0.029
NUP88 (UniProt Q99567)	0.985 ± 0.042	0.965 ± 0.038
UniProt Q96RQ3 and related entries	1 ± 0.034	0.967 ± 0.038

Target	NP40-soluble protein abundance (concentration: 0.1mM)	NP40-soluble protein abundance (concentration: 0.5mM)
GRWD1 (UniProt Q9BQ67)	1.05 ± 0.045	1.01 ± 0.024
PLEKHF1 (UniProt Q96S99)	0.997 ± 0.035	0.968 ± 0.027
UniProt Q99571 and related entries	0.998 ± 0.012	0.981 ± 0.031
UniProt Q9BXP5-3|Q9BXP5-4	1.04 ± 0.033	1.06 ± 0.025
C1orf50 (UniProt Q9BV19)	1.03 ± 0.041	1.03 ± 0.055
UniProt Q9BQS8 and related entries	0.977 ± 0.054	0.994 ± 0.043
PECR (UniProt Q9BY49)	1.01 ± 0.014	1.03 ± 0.054
CARD11 (UniProt Q9BXL7)	0.983 ± 0.016	0.947 ± 0.04
PI4K2A (UniProt Q9BTU6)	1.01 ± 0.02	0.966 ± 0.049
UniProt Q9BSD7	1.05 ± 0.069	1.14 ± 0.05
BUD13 (UniProt Q9BRD0)	1 ± 0.019	0.993 ± 0.04
UniProt Q9BTT0 and related entries	0.979 ± 0.016	1.03 ± 0.029
ARPC5L (UniProt Q9BPX5)	1.04 ± 0.035	1.02 ± 0.055
TCF25 (UniProt Q9BQ70)	1.07 ± 0.13	1.01 ± 0.031
UniProt Q9BRX8 and related entries	1.06 ± 0.035	0.981 ± 0.085
UniProt Q9BVC4	1.07 ± 0.052	0.972 ± 0.062
UniProt Q96QU8 and related entries	1.05 ± 0.039	1.03 ± 0.032
ABHD6 (UniProt Q9BV23)	1.02 ± 0.0085	1 ± 0.014
ADI1 (UniProt Q9BV57)	1.01 ± 0.031	0.994 ± 0.026
